Assay: Crosslinked outermost layer of photoreceptor from methanol coating liquid; image formation
Protocol: Preparation of Crosslinked Charge Transport Layer Using Sol-Gel Method
The following components were mixed.
The mixture was agitated for one hour at room temperature to perform a reaction. Then 53.4 mg of tris(2,4-pentanedionate)aluminum (III) was added to the mixture to prepare a coating liquid including methanol as a solvent.
The coating liquid was coated on the above-prepared charge transport layer by a spray coating method and then dried to form an outermost layer with a thickness of 2 μm. The photoreceptor was heated for 1 hour at 130° C. to crosslink the outermost layer.
The photoreceptor was set in the main body of the image forming apparatus (IMAGIO NEO) to produce images. The resultant images had good image qualities.
The procedure for preparation of the outermost layer in Applied Example 1 was repeated except that the compound of Example 1 was replaced with each of the comparative compounds (6) to (9).

Compound | Charge transport property (photoreceptor with crosslinked outermost layer, images produced in IMAGIO NEO) | Appearance of coated outermost layer (spray-coated on charge transport layer)
Cc1ccc(N(c2ccc(C)cc2)c2ccc(C=C(c3ccc(OCC(O)CO)cc3)c3ccc(OCC(O)CO)cc3)cc2)cc1 (centres unmarked) [Compound of Ex. 1, N-{4-[2,2-bis(4-(2,3-dihydroxypropyloxy)phenyl)vinyl]phenyl}-N,N-bis(4-tolyl)amine] | good charge transport property | –
CCc1ccc(N(c2ccc(CCO)cc2)c2ccc(CCO)cc2)cc1C [Comp. compound (8)] | – | opaque due to occurrence of phase separation

— patent US8017807B2, “Tetrahydroxy compound, method for preparing the tetrahydroxy compound, and photoreceptor using the tetrahydroxy compound” (Ricoh Company Limited, priority 2005, dated 2011)
